# Paper PMC6409740
# The chains behind the UniProt entries cited, without tags or fusion partners.
# UniProt O80340: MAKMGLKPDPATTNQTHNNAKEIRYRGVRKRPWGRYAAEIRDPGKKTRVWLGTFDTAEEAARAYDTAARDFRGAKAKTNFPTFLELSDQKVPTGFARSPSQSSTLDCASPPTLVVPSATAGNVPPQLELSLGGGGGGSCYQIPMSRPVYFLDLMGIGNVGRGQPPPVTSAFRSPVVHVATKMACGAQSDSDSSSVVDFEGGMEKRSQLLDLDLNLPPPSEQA
# These are yes or no findings as the source states them, for the method shown. In cells and extracts the contact can be indirect. Some results given as binding are weak or reduced against the parent protein; the word gives no strength. For part of these data: Where a sequence is shown, tags or fusion partners need not be part of it.
# B1: WRKY53 fused to the N- or C-terminal part of eYFP (BiFC) (protein, UniProt Q9SUP6 1-324)
# chain: MEGRDMLSWEQKTLLSELINGFDAAKKLQARLREAPSPSSSFSSPATAVAETNEILVKQIVSSYERSLLLLNWSSSPSVQLIPTPVTVVPVANPGSVPESPASINGSPRSEEFADGGGSSESHHRQDYIFNSKKRKMLPKWSEKVRISPERGLEGPQDDVFSWRKYGQKDILGAKFPRSYYRCTHRSTQNCWATKQVQRSDGDATVFEVTYRGTHTCSQAITRTPPLASPEKRQDTRVKPAITQKPKDILESLKSNLTVRTDGLDDGKDVFSFPDTPPFYNYGTINGEFGHVESSPIFDVVDWFNPTVEIDTTFPAFLHESIYY
# Legend:
# [1] = target: ERF4-R fused to the N- or C-terminal part of eYFP (BiFC) (Arabidopsis thaliana) (UniProt O80340); test: split reporter; BiFC-2in1-NN vector (N- and C-terminal part of eYFP at the N-termini of both partners, RFP as transformation control) in Arabidopsis Col-0 protoplasts, overnight; percentage of cells with eYFP signal by flow cytometry; also confocal microscopy
# [2] = target: ETHYLENE RESPONSE FACTOR4 isoform ERF4-R, recombinant (GST-ERF4-R and 6xHIS-ERF4-R) (Arabidopsis thaliana) (UniProt O80340); test: pull-down; 500 ug total protein of E. coli crude extracts mixed, 1 h at room temperature; 6xHIS-tagged protein held on HIS-select nickel magnetic agarose beads (wash: 50 mM NaH2PO4, 300 mM NaCl, 10 mM imidazole; elution with 300 mM imidazole); GST-tagged protein detected in the eluate by anti-GST Western blot
# [3] = target: WRKY53 fused to the N- or C-terminal part of eYFP (BiFC) (Arabidopsis thaliana) (UniProt Q9SUP6); test: split reporter; BiFC-2in1-NN vector (N- and C-terminal part of eYFP at the N-termini of both partners, RFP as transformation control) in Arabidopsis Col-0 protoplasts, overnight; percentage of cells with eYFP signal by flow cytometry; also confocal microscopy
molecule,measurement,setting,value
ERF4-R fused to the N- or C-terminal part of eYFP (BiFC) (from UniProt O80340 1-222),binding,[1],binds
"ETHYLENE RESPONSE FACTOR4 isoform ERF4-R, recombinant (GST-ERF4-R and 6xHIS-ERF4-R) (from UniProt O80340 1-222)",binding,[2],binds
B1,binding,[3],binds
